Measured values as given in the supplement of paper PMC7666118.
This is one part of the list.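 The calls were made as follows: active = dose-dependent thermal stabilisation significant by F-test of dose-response against flat model at 10% FDR; inactive = not significant.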

Sequences of proteins named here, by UniProt entry; tags and fusion partners are left off. A change or cut given only in a name is not applied to a line headed by its entry.
UniProt O00566: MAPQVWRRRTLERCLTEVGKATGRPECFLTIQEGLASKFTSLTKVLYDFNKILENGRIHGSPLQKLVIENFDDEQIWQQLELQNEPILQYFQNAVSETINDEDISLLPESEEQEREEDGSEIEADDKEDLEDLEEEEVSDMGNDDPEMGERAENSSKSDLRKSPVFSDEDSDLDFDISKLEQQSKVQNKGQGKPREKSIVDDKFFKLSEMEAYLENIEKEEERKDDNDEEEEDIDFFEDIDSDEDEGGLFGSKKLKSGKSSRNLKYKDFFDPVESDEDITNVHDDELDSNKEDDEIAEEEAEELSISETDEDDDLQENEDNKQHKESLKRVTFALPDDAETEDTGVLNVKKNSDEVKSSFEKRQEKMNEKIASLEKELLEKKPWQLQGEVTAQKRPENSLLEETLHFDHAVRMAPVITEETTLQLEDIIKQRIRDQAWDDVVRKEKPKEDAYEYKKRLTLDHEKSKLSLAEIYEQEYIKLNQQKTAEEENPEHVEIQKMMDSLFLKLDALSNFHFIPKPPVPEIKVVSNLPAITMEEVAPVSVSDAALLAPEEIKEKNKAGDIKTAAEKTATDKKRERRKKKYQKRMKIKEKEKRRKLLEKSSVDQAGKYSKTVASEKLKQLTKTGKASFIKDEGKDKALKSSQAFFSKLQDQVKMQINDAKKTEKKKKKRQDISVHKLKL
UniProt Q9Y4B5: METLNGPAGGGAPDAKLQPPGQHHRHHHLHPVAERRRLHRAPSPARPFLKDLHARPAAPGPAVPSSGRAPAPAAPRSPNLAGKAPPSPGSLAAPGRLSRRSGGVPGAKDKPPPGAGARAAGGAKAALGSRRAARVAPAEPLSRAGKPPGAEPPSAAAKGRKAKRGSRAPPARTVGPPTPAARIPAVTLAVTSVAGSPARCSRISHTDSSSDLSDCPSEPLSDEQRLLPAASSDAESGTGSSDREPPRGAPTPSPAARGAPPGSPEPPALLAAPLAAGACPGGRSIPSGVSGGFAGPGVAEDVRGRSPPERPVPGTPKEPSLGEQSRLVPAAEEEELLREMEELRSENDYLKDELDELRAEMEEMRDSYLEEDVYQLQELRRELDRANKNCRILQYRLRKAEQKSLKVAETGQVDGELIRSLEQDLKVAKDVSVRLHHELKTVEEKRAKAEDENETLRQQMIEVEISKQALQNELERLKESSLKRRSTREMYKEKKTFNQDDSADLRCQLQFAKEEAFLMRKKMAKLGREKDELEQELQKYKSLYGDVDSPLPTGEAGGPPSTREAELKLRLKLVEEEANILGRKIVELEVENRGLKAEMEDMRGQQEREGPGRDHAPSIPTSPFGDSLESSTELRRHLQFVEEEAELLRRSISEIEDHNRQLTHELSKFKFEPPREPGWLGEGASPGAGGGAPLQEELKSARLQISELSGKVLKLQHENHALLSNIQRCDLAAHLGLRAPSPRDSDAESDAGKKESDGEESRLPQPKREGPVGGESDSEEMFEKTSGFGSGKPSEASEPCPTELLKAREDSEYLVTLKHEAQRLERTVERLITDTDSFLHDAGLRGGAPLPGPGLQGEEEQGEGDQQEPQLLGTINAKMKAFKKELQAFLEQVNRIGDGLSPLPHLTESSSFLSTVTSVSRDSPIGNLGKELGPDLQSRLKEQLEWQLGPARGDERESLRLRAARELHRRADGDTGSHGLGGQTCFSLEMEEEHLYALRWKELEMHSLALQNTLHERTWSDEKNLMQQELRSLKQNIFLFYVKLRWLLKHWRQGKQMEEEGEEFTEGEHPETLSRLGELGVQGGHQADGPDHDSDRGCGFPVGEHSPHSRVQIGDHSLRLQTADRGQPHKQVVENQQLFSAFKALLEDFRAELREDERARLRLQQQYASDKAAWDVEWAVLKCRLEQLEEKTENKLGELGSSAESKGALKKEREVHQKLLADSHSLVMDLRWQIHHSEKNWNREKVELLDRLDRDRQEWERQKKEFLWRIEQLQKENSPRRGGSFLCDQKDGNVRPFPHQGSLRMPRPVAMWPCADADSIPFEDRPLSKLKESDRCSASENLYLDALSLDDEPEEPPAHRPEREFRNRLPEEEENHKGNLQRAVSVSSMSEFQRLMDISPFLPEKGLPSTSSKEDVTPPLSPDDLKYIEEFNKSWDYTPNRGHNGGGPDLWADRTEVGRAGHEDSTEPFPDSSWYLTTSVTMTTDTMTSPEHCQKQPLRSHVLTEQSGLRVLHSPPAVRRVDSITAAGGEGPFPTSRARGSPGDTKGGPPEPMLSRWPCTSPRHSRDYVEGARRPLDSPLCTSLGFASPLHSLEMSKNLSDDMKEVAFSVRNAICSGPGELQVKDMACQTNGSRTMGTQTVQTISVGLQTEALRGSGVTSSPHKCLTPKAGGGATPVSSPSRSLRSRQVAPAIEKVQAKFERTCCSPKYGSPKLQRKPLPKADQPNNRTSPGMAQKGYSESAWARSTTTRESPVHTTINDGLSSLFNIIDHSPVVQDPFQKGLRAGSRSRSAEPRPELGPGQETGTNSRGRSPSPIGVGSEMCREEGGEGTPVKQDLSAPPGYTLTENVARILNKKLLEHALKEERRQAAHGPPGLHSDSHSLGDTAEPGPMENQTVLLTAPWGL
UniProt P50579: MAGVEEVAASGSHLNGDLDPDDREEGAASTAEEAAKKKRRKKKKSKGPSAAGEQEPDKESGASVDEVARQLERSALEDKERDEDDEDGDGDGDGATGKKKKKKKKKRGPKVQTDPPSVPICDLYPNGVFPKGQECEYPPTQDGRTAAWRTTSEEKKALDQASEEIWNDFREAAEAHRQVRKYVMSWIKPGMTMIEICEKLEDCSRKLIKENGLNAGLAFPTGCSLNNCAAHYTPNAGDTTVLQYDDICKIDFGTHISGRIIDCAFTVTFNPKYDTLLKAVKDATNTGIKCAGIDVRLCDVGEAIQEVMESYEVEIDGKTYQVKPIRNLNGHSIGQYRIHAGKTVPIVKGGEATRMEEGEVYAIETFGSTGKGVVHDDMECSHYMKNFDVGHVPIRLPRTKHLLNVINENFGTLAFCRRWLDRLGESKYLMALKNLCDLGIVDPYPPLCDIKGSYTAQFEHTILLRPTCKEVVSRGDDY
UniProt Q96QZ7: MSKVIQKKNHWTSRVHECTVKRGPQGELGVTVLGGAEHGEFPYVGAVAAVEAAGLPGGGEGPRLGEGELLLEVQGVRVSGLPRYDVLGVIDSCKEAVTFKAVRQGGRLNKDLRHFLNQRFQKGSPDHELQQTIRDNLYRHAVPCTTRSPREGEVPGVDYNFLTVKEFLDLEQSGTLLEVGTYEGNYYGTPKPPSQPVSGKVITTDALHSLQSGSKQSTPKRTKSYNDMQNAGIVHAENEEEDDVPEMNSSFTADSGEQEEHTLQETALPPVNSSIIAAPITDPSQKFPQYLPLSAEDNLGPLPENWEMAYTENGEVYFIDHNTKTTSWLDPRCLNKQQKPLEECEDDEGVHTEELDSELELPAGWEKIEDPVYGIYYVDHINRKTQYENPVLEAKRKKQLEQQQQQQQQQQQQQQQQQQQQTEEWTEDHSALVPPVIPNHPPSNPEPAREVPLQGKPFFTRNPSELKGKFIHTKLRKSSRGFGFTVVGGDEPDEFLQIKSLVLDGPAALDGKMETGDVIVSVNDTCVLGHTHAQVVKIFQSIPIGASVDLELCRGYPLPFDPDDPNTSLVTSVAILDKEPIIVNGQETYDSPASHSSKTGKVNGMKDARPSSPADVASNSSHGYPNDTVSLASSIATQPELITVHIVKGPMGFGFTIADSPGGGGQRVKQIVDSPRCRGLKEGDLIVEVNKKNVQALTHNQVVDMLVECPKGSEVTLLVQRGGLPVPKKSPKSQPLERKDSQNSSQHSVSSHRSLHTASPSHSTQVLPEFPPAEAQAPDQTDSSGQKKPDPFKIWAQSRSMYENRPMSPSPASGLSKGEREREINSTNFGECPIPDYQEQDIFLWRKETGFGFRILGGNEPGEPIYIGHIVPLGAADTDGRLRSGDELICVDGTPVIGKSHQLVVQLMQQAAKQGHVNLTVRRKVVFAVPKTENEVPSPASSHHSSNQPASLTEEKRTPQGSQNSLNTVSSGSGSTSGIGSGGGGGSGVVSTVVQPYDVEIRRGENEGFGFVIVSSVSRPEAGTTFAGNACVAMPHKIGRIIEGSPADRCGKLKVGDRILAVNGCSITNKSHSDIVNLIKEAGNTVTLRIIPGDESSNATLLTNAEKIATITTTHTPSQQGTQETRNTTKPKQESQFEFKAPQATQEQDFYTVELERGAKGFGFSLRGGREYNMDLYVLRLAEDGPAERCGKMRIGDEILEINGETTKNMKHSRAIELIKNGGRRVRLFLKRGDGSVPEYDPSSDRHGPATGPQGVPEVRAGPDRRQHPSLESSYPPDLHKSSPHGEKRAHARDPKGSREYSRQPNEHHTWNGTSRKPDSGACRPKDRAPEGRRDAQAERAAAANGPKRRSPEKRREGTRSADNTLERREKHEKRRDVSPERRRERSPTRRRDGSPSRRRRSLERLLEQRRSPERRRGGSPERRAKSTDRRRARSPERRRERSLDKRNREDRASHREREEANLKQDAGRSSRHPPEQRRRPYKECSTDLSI
UniProt O96007: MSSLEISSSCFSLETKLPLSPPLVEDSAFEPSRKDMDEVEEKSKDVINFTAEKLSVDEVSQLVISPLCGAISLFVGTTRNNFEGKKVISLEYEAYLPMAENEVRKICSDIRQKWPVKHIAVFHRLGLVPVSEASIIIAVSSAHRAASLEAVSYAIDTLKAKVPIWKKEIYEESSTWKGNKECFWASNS
UniProt Q99797: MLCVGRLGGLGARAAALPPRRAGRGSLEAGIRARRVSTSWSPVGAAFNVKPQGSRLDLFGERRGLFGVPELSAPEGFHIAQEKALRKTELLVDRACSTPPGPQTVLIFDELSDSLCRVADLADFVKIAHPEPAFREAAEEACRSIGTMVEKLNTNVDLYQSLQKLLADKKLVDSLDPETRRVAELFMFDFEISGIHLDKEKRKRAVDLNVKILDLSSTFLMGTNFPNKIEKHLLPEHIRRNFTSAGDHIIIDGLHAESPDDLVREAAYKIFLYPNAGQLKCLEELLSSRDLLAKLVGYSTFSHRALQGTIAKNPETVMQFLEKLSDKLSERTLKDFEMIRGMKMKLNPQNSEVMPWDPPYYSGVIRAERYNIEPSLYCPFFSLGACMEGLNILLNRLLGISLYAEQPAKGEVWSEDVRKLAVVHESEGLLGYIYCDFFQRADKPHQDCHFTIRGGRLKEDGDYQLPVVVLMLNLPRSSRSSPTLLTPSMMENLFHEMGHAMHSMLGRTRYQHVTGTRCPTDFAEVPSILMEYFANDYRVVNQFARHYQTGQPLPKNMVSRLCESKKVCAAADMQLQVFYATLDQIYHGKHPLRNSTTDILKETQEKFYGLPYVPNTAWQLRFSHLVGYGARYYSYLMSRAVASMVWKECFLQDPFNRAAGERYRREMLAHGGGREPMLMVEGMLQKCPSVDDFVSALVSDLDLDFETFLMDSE
UniProt O95396: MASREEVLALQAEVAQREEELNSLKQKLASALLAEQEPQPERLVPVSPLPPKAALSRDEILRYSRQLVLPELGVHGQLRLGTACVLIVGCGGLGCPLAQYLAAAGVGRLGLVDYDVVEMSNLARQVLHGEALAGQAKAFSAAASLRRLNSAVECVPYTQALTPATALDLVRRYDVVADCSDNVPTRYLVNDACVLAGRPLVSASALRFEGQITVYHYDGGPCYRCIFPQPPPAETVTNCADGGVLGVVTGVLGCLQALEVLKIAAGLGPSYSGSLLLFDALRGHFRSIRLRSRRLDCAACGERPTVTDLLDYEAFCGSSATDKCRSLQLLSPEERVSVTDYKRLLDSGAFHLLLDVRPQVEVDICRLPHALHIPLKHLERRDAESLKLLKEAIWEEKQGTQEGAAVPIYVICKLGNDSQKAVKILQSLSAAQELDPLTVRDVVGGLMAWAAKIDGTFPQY
UniProt Q9NQG6: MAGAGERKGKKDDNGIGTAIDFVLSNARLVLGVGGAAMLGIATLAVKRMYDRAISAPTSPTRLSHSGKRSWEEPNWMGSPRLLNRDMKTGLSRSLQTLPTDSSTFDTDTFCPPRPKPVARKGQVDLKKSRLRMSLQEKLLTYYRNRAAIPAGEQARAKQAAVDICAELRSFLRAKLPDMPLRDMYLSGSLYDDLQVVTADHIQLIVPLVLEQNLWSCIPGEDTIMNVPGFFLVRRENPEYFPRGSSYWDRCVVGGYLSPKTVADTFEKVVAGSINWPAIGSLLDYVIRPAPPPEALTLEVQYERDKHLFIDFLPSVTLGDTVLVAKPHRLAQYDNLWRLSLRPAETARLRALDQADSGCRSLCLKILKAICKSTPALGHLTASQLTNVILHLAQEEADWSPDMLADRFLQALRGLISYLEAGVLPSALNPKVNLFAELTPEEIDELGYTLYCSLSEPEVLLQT
UniProt Q96PE7: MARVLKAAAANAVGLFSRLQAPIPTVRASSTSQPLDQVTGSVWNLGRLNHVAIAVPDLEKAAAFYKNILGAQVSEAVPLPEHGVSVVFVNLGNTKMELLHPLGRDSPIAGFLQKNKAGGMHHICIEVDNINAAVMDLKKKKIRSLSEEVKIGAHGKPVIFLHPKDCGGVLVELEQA

These targets were tested with Nc1nc2c(ncn2[C@@H]2O[C@H](COP(=O)(O)OP(=O)(O)OP(=O)(O)O)[C@@H](O)[C@H]2O)c(=O)[nH]1 (assay: dose-dependent thermal stabilisation call (2D-TPP, DLPTP, 10% FDR) (binary (1 = stabilised)); higher = stabilised by the compound). Conditions: system: Jurkat gel-filtered lysate; concentration range 1-500 µM.
Experimental: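 2D thermal proteome profiling in gel-filtered Jurkat E6.1 lysate (2 mg/ml) treated with NaGTP (0, 1, 10, 100, 500 uM) for 10 min at room temperature, then heated 3 min at one of 12 temperatures (42-63.9 C). Soluble protein was quantified by TMT10 MS. The value is the DLPTP call of the paper: dose-dependent thermal stabilisation over all temperatures at 10% FDR (F-test of a dose-response against a flat model); one experiment, one call per tested protein.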

| Target | dose-dependent thermal stabilisation call |
| --- | --- |
| MCCC2 (UniProt Q9HCC0) | inactive: 0 |
| MRGBP (UniProt Q9NV56) | inactive: 0 |
| MPHOSPH10 (UniProt O00566) | inactive: 0 |
| MTCL1 (UniProt Q9Y4B5) | inactive: 0 |
| MICALL1 (UniProt Q8N3F8) | inactive: 0 |
| MPST (UniProt P25325) | inactive: 0 |
| METAP2 (UniProt P50579) | inactive: 0 |
| MAGI1 (UniProt Q96QZ7) | inactive: 0 |
| MOCS2 (UniProt O96007) | inactive: 0 |
| MBIP (UniProt Q9NS73) | inactive: 0 |
| MIPEP (UniProt Q99797) | active: 1 |
| MLLT1 (UniProt Q03111) | inactive: 0 |
| MVD (UniProt P53602) | inactive: 0 |
| MTMR6 (UniProt Q9Y217) | active: 1 |
| MPHOSPH8 (UniProt Q99549) | inactive: 0 |
| MAGI3 (UniProt Q5TCQ9) | inactive: 0 |
| METAP1 (UniProt P53582) | inactive: 0 |
| MON2 (UniProt Q7Z3U7) | active: 1 |
| MOCS3 (UniProt O95396) | active: 1 |
| MED16 (UniProt Q9Y2X0) | inactive: 0 |

| Target | dose-dependent thermal stabilisation call |
| --- | --- |
| MAPT (UniProt P10636) | inactive: 0 |
| MORF4L2 (UniProt Q15014) | inactive: 0 |
| LRPAP1 (UniProt P30533) | inactive: 0 |
| MTMR2 (UniProt Q13614) | inactive: 0 |
| MVB12B (UniProt Q9H7P6) | active: 1 |
| MGMT (UniProt P16455) | inactive: 0 |
| MPRIP (UniProt Q6WCQ1) | inactive: 0 |
| MOB2 (UniProt Q70IA6) | active: 1 |
| MAGED1 (UniProt Q9Y5V3) | inactive: 0 |
| LUC7L3 (UniProt O95232) | active: 1 |
| MIEF1 (UniProt Q9NQG6) | inactive: 0 |
| MARCKSL1 (UniProt P49006) | inactive: 0 |
| MACF1 (UniProt Q9UPN3) | inactive: 0 |
| MON1A (UniProt Q86VX9) | inactive: 0 |
| MCM4 (UniProt P33991) | inactive: 0 |
| LYSMD2 (UniProt Q8IV50) | inactive: 0 |
| METTL21A (UniProt Q8WXB1) | inactive: 0 |
| MCEE (UniProt Q96PE7) | inactive: 0 |
| ME2 (UniProt P23368) | inactive: 0 |
| MAD2L1 (UniProt Q13257) | inactive: 0 |
